These are yes or no findings as the source states them, for the method shown. For some assays here: Binding can be weak; no strength is given.
Key:
[1] = target: soluble HLA-A*4301 (sHLA-A*4301) (human); assay: FP screen of 53 sHLA
[2] = target: soluble HLA-A*1102 (sHLA-A*1102) (human); assay: FP screen of 53 sHLA with FITC-peptide
[3] = target: soluble HLA-A*4301 (sHLA-A*4301) (human); assay: FP screen of 53 sHLA with FITC-peptide
[4] = target: soluble HLA-A*2601 (human); assay: FP screen of 53 sHLA
[5] = target: soluble HLA-A*1102 (sHLA-A*1102) (human); assay: FP screen of 53 sHLA
[6] = target: soluble HLA-A*6801 (sHLA-A*6801) (human); assay: FP screen of 53 sHLA with FITC-peptide
[7] = target: soluble HLA-B*1501 (human); assay: FP screen

binding [2] | binding [5] | binding [6] | Binder | also measured
binds |  |  | YTDGVPLKY (FITC-labeled (position not given)) | binding [1]: binds; binding [3]: binds
 |  |  | YLEPAKAKY (FITC-labeled (position not given)) | binding [4]: binds
binds | binds | binds | SLFRAVIKK (FITC-labeled (position not given)) | 
binds | binds | binds | KVFPKALINK (FITC-labeled (position not given)) | 
 |  |  | KYPENKFLL (FITC-labeled (position not given)) […, FITC-labeled A24-like peptide] | binding [7]: no binding (tested: 100 ug/ml sHLA)

From US20140093973A1
